In all, about 410,000 compounds went through this assay and about 2,000 (0.49%) were called active. Inconclusive results, whose numbers are uncertain, are shown with a selection of clear calls. Calls follow the shape of the full dose curve; tested in HEK293 reporter line. Potencies beside an inconclusive call are fits to weak or partial responses and may not hold up.
Assay: qHTS Assay for Foot and Mouth Disease Virus Antivirals: Primary Screen against the MLPCN compound library; also: nearly all actives have a fitted effect of over 55% in size
Settings: FMDV antiviral cell-based qHTS; activity, negative = inhibition: at 57.9 µM (top of the series)
Potency is read from the fitted curve at half-maximal effect.

Row | Structure (SMILES) | Potency | activity, negative = inhibition
1 | NC(=O)c1nn(-c2ccccc2)nc1NC(=O)CSc1nnnn1-c1ccc(Cl)cc1 | inconclusive: 35.5 µM [inhibitor, partial curve, poor fit] | 
2 | CC(=O)Nc1ccc(S(=O)(=O)c2ccnc3cc(Cl)ccc23)cc1 | inconclusive: 31.6 µM [inhibitor, partial curve, poor fit] | 
3 | Cc1ccc(C(=O)/C=C/Nc2ccc3c(c2)OCO3)cc1 | inconclusive: 12.6 µM [inhibitor, single point] | 
4 | CCC(=O)N1CCc2cc(Br)cc(S(=O)(=O)CCC(=O)NCc3ccccc3OC)c21 | inactive | 
5 | O=C(Nc1ccc(N2CCN(C(=O)c3ccco3)CC2)cc1)c1ccc2c(c1)OCO2 | inconclusive: 12.6 µM [inhibitor, partial curve] | 
6 | O=C(Nc1ccc(CSc2ccccc2)cc1)c1ccc(CN2CCOCC2)cc1 | inconclusive: 5.01 µM [inhibitor, partial curve, poor fit] | 
7 | COC(=O)N1c2ccccc2CCc2ccccc21 | inconclusive: 17.8 µM [inhibitor, partial curve, poor fit] | 
8 | COc1ccc(CNC(=O)Cn2c(=O)nc(-c3ccccc3)c3ccccc32)cc1OC | active: 20 µM | 
9 | N#Cc1nc(-c2ccc(OCc3ccccc3)cc2)oc1NCCCN1CCOCC1 | inconclusive: 39.8 µM [inhibitor, partial curve, poor fit] | 
10 | Cc1nc2cccnc2n1-c1cccc(C(=O)N2CCN(c3cccc(Cl)c3)CC2)c1 | inconclusive: 25.1 µM [inhibitor, partial curve, poor fit] | 
11 | CC1(C(=O)NS(=O)(=O)C2CC2)CCCN(C(=O)c2ccc(F)cc2Cl)C1 (centres undefined) | inconclusive: 2 µM [inhibitor, full curve] | 
12 | Cc1ccc(C)c(N2CCN(C(=O)C3CCCN(S(=O)(=O)c4c(C)noc4C)C3)CC2)c1 (centres undefined) | inconclusive: 3.55 µM [inhibitor, full curve] | 
13 | CCCCN(CCCNC(=O)c1ccc2c(c1)NC(=O)CN2C)c1ccccc1 | inconclusive: 22.4 µM [inhibitor, partial curve, poor fit] | 
14 | Oc1c(Cl)c(Cl)c2ncccc2c1Cl | inconclusive: 7.08 µM [inhibitor, partial curve] | 
15 | Cc1ccc(C)c(NC(=S)NC(NC(=O)/C=C/c2ccccc2)C(Cl)(Cl)Cl)c1 (centres undefined) | inconclusive: 14.1 µM [inhibitor, partial curve, poor fit] | 
16 | COc1cccc(-c2nc3cc4c(cc3cc2CN(C(=O)c2cccs2)C2CC2)CCC4)c1OC | inconclusive: 31.6 µM [inhibitor, partial curve, poor fit] | 
17 | CCc1nnc(NC(=O)C2CCCN(c3nc4ccccc4s3)C2)s1 (centres undefined) | inconclusive: 20 µM [inhibitor, single point] | 
18 | Cc1ccc(C)c(N2CCN(C(=O)CCS(=O)(=O)c3ccc4c(c3)NC(=O)CO4)CC2)c1 | active: 12.6 µM | 
19 | CC(C)c1nn2c(=O)cc(COC(=O)c3ccccc3NC(=O)c3cccc(Cl)c3)nc2s1 | inconclusive: 8.91 µM [inhibitor, full curve, poor fit] | 
20 | Cc1ccc(NC(=O)C2CCN(S(=O)(=O)c3ccc4c(c3)NC(=O)C(C)S4)CC2)c(Cl)c1 (centres undefined) | inconclusive: 17.8 µM [inhibitor, partial curve, poor fit] | 

Row | Structure (SMILES) | Potency | activity, negative = inhibition
21 | Cc1cc(Cl)ccc1OCC(=O)Nc1ccccc1N1CCOCC1 | inconclusive: 28.2 µM [inhibitor, single point] | 
22 | O=C(/C=C/c1cccnc1)/C=C/c1cccnc1 | inconclusive: 11.2 µM [inhibitor, partial curve, poor fit] | 
23 | CC1CCN(c2nc(CN3CCCCC3)nc3scc(-c4ccccc4)c23)CC1 | inconclusive: 31.6 µM [inhibitor, partial curve, poor fit] | 
24 | Cc1ccc(Cl)c(OCCN2CCc3ccccc3C2)c1 | inactive | 
25 | Cc1ccc(-c2ccc(=O)n(Cc3c(F)cccc3Cl)n2)cc1 | inconclusive: 25.1 µM [inhibitor, partial curve, poor fit] | 
26 | COc1ccc(-n2cc(C(=O)NCCc3cc(OC)ccc3OC)c3ccccc3c2=O)cc1 | inconclusive: 12.6 µM [inhibitor, partial curve] | 
27 | COc1ccc(N(CC(=O)N2CCN(c3ccc(Cl)cc3)CC2)S(=O)(=O)c2c(C)n[nH]c2C)cc1 | inconclusive: 12.6 µM [inhibitor, partial curve] | 
28 | CC(C)CN(C(=O)CCC(=O)OCc1ccc(Cl)cc1Cl)c1c(N)n(CC(C)C)c(=O)[nH]c1=O | inconclusive: 20 µM [inhibitor, partial curve, poor fit] | 
29 | NC(=O)COc1ccc(/C=C2\C(=O)ON=C2c2ccccc2)cc1 | inconclusive: 25.1 µM [inhibitor, partial curve, poor fit] | 
30 | O=[N+]([O-])c1nn(-c2ccc3c(c2)OCCO3)n(O)c1=Nc1ccccc1 | inconclusive: 7.94 µM [inhibitor, partial curve, poor fit] | 
31 | Cn1c(=O)n(C)c2cc([N+](=O)[O-])c(N3CCN(C(=O)c4cccc(Cl)c4)CC3)cc21 | inconclusive: 35.5 µM [inhibitor, partial curve, poor fit] | 
32 | CCC1CCCCN1S(=O)(=O)c1ccc(NC(=O)c2nc(S(C)(=O)=O)ncc2Cl)cc1 (centres undefined) | inconclusive: 31.6 µM [inhibitor, partial curve, poor fit] | 
33 | Cc1onc(-c2ccc3c(c2)OCO3)c1-c1ccc2[nH]ccc2c1 | inactive | 
34 | Cc1ccc(-c2cc(-c3ccccc3)cc(-c3ccccc3)[n+]2-c2ccccc2)cc1 | inconclusive: 7.08 µM [inhibitor, full curve, poor fit] | 
35 | O=[N+]([O-])c1ccc2c(c1)S(=O)(=O)C=C2 | inconclusive: 31.6 µM [inhibitor, single point] | 
36 | CCOc1ccccc1N1CCN(C(=O)c2ccc(Cl)c(S(=O)(=O)N3CCCCC3)c2)CC1 | inconclusive: 31.6 µM [inhibitor, partial curve, poor fit] | 
37 | Cc1ccc2ccc3ccc(C)nc3c2n1 | inconclusive: 15.8 µM [inhibitor, partial curve, poor fit] | 
38 | Cc1nc2cc(C(F)(F)F)ccc2n1C1CCN(Cc2nnnn2Cc2cccs2)CC1 | inactive | 
39 | CN(C)S(=O)(=O)N1CCC(Oc2ccc(C(=O)NCc3cnn(C)c3)cc2)CC1 | inconclusive: 5.62 µM [inhibitor, partial curve] | 
40 | CS(=O)(=O)c1ccc(S(=O)CC(=O)Oc2ccc(Cl)cc2)c([N+](=O)[O-])c1 (centres undefined) | inconclusive: 35.5 µM [inhibitor, partial curve, poor fit] | 

Given in CSV form: entries from further up
Row,Structure (SMILES),Potency,"activity, negative = inhibition"
31,Cn1c(=O)n(C)c2cc([N+](=O)[O-])c(N3CCN(C(=O)c4cccc(Cl)c4)CC3)cc21,"inconclusive: 35.5 µM [inhibitor, partial curve, poor fit]",
32,CCC1CCCCN1S(=O)(=O)c1ccc(NC(=O)c2nc(S(C)(=O)=O)ncc2Cl)cc1 (centres undefined),"inconclusive: 31.6 µM [inhibitor, partial curve, poor fit]",

Continuation:

Row | Structure (SMILES) | Potency | activity, negative = inhibition
41 | C=C1C(=O)OC2C1CCC(C)C1(O)C=CC(=O)C21C (centres undefined) | inconclusive: 39.8 µM [inhibitor, single point] | 
42 | CC(C)(C)c1ccc(C(=O)NCCOc2ccccc2F)cc1 | inconclusive: 35.5 µM [inhibitor, partial curve, poor fit] | 
43 | Cc1cc(-c2cn3ccccc3n2)c(C)n1-c1ccccc1 | inconclusive: 14.1 µM [inhibitor, single point] | 
44 | CCC(C)c1ccccc1OCCCCN1CCCC1 (centres undefined) | inactive | 
45 | CCCN(CCC)CCCNC(=O)C1CCCN(Cc2nc(-c3ccc(Cl)cc3)oc2C)C1 (centres undefined) | inactive | 
46 | COc1ccc(NC(=O)CSc2cc(C)ccc2C)cn1 | inconclusive: 31.6 µM [inhibitor, single point] | 
47 | COC(=O)c1c(C)[nH]c(C(=O)COc2ccc3ccc(=O)oc3c2)c1C | inconclusive: 20 µM [inhibitor, single point] | 
48 | Cc1ccc2c(=O)cc(C(=O)Nc3sc4c(c3C(=O)NCC3CCCO3)CCC4)oc2c1 (centres undefined) | inconclusive: 7.94 µM [inhibitor, full curve] | 
49 | COc1ccc(C(=O)Nc2cccc(-c3nnc(-c4ccco4)o3)c2)cc1 | inconclusive: 35.5 µM [inhibitor, single point] | 
50 | CCOC(=O)c1sc(C)c2c(=O)n(CCc3ccccc3)nnc12 | inconclusive: 6.31 µM [inhibitor, full curve] | 
51 | CSCCC(NC(=O)c1ccc(Cl)cc1Cl)C(=O)N1CC(C)OC(C)C1 (centres undefined) | inconclusive: 7.94 µM [inhibitor, partial curve, poor fit] | 
52 | COc1ccc(Oc2ccc(C(F)(F)F)cc2NC(=O)c2ccc(OC)cc2)cc1 |  | inconclusive: -32.2% [inhibitor]
53 | CCCCC[C@@H](/C=C/C1C(=O)C=C[C@H]1C/C=C\CCCC(=O)O)OC(C)=O (some centres undefined) | inconclusive: 35.5 µM [inhibitor, single point] | 
54 | CC(C)Cn1c(N)c(C(=O)COC(=O)c2cc(C(F)(F)F)nc3ccccc23)c(=O)n(C)c1=O | inconclusive: 28.2 µM [inhibitor, partial curve, poor fit] | 
55 | Cc1csc(NC(=O)c2cn3ccccc3n2)n1 | inconclusive: 14.1 µM [inhibitor, partial curve, poor fit] | 
56 | Cn1c(N)c(C(=O)CSc2nn(-c3ccccc3)c(=S)s2)c(=O)n(C)c1=O | inconclusive: 25.1 µM [inhibitor, partial curve, poor fit] | 
57 | Cn1c(-c2ccccc2F)cc2onc(-c3ccccc3)c2c1=O | inconclusive: 15.8 µM [inhibitor, single point] | 
58 | Cc1ccc(-n2ncc3c(Nc4cccc(C(=O)O)c4)ncnc32)cc1 | inconclusive: 12.6 µM [inhibitor, partial curve] | 
59 | CC(=O)N1CCCc2cc(S(=O)(=O)N3CCCC(C(=O)N4CCN(c5ccccc5)CC4)C3)ccc21 (centres undefined) | inconclusive: 31.6 µM [inhibitor, partial curve, poor fit] | 
